Measurements from paper PMC4649089, “Urea Unfolding Study of E. coli Alanyl-tRNA Synthetase and Its Monomeric Variants Proves the Role of C-Terminal Domain in Stability” (Journal of Amino Acids, 2015).
These are yes or no findings as the source states them, for the method shown.

Key:
[1] = molecular target: wild type E. coli alanyl-tRNA synthetase (E. coli) (UniProt P00957); assay: AUC; sedimentation velocity, 4 μM, 28,000 rpm, 20°C, 100 mM Tris-HCl pH 8.0, with 8 M urea; both purified
[2] = molecular target: wild type E. coli alanyl-tRNA synthetase (E. coli) (UniProt P00957); assay: AUC; sedimentation velocity, 4 μM, 28,000 rpm, 20°C, 100 mM Tris-HCl pH 8.0, with 3.5 M urea; both purified

binding [1]: no binding (condition: with 8 M urea) | binding [2]: no binding (condition: with 3.5 M urea)
B1: wild type E. coli alanyl-tRNA synthetase (enzyme, UniProt P00957 1-876, looked up)
chain: MSKSTAEIRQAFLDFFHSKGHQVVASSSLVPHNDPTLLFTNAGMNQFKDVFLGLDKRNYSRATTSQRCVRAGGKHNDLENVGYTARHHTFFEMLGNFSFGDYFKHDAIQFAWELLTSEKWFALPKERLWVTVYESDDEAYEIWEKEVGIPRERIIRIGDNKGAPYASDNFWQMGDTGPCGPCTEIFYDHGDHIWGGPPGSPEEDGDRYIEIWNIVFMQFNRQADGTMEPLPKPSVDTGMGLERIAAVLQHVNSNYDIDLFRTLIQAVAKVTGATDLSNKSLRVIADHIRSCAFLIADGVMPSNENRGYVLRRIIRRAVRHGNMLGAKETFFYKLVGPLIDVMGSAGEDLKRQQAQVEQVLKTEEEQFARTLERGLALLDEELAKLSGDTLDGETAFRLYDTYGFPVDLTADVCRERNIKVDEAGFEAAMEEQRRRAREASGFGADYNAMIRVDSASEFKGYDHLELNGKVTALFVDGKAVDAINAGQEAVVVLDQTPFYAESGGQVGDKGELKGANFSFAVEDTQKYGQAIGHIGKLAAGSLKVGDAVQADVDEARRARIRLNHSATHLMHAALRQVLGTHVSQKGSLVNDKVLRFDFSHNEAMKPEEIRAVEDLVNTQIRRNLPIETNIMDLEAAKAKGAMALFGEKYDERVRVLSMGDFSTELCGGTHASRTGDIGLFRIISESGTAAGVRRIEAVTGEGAIATVHADSDRLSEVAHLLKGDSNNLADKVRSVLERTRQLEKELQQLKEQAAAQESANLSSKAIDVNGVKLLVSELSGVEPKMLRTMVDDLKNQLGSTIIVLATVVEGKVSLIAGVSKDVTDRVKAGELIGMVAQQVGGKGGGRPDMAQAGGTDAAALPAALASVKGWVSAKLQ
notes: alanyl-tRNA synthetase (alaRS), E. coli, full length, printed as 875 residues per subunit; Clone was a gift from Paul Schimmel; homodimer by sedimentation equilibrium and velocity; also called WT-alaRS; WT; source: E. coli BL21 (DE3), pET28a, purified (Ni-NTA agarose)
